Data as given in the supplement of paper PMC10849652.
Some of the results follow.

Chains of the proteins cited; added tags and fusions are not shown. Lines headed by an entry give the natural chain unless they say otherwise; changes in a name come on top.
UniProt Q92526, whole entry, looked up: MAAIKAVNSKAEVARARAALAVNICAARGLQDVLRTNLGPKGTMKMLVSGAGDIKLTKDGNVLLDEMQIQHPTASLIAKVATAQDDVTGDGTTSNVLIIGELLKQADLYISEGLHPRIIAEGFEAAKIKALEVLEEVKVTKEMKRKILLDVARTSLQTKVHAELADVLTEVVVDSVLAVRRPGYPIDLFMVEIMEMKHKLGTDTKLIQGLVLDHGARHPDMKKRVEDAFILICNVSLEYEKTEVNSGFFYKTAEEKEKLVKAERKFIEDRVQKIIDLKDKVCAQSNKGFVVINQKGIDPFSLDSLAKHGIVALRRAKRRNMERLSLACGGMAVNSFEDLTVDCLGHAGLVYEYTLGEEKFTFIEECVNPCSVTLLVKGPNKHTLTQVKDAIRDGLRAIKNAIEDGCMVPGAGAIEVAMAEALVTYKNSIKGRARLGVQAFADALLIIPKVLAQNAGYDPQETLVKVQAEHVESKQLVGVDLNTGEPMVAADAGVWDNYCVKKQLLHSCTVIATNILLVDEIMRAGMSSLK
UniProt O00421: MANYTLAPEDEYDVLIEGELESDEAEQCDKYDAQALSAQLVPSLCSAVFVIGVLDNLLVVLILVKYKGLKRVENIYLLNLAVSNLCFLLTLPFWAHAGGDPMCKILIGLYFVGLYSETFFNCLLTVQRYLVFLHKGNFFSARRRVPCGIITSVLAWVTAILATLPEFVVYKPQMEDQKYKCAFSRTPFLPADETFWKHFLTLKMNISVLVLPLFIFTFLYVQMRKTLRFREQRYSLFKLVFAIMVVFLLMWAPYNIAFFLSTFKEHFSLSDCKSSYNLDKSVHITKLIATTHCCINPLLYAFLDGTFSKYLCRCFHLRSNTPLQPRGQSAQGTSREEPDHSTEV
UniProt P24864, whole entry, looked up: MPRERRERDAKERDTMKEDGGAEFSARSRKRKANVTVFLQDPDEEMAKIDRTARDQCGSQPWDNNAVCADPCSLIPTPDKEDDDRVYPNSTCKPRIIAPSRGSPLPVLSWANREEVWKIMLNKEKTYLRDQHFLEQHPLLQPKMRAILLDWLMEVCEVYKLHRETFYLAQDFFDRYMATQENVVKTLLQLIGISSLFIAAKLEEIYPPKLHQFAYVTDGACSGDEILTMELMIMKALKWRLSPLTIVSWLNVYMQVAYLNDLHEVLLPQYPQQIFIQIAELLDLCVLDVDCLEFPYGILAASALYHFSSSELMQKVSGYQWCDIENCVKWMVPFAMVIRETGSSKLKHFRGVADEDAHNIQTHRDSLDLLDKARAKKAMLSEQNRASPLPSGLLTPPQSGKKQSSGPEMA
UniProt A6NKD9: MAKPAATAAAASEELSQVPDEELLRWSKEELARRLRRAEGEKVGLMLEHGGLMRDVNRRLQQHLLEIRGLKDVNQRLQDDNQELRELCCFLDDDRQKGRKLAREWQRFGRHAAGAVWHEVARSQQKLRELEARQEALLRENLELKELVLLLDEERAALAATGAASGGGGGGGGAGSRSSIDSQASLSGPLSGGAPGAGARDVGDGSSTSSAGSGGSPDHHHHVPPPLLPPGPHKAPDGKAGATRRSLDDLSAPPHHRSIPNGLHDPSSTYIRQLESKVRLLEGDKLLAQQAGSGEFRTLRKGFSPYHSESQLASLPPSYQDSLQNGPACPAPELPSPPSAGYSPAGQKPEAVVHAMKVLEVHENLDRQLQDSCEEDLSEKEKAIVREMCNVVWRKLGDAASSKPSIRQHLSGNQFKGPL
UniProt Q15834: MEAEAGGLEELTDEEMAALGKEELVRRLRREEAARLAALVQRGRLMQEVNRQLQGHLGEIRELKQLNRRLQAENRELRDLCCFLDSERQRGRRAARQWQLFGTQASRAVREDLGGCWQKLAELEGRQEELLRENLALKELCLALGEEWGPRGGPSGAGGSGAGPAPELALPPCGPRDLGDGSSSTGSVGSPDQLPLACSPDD
UniProt Q9HC52: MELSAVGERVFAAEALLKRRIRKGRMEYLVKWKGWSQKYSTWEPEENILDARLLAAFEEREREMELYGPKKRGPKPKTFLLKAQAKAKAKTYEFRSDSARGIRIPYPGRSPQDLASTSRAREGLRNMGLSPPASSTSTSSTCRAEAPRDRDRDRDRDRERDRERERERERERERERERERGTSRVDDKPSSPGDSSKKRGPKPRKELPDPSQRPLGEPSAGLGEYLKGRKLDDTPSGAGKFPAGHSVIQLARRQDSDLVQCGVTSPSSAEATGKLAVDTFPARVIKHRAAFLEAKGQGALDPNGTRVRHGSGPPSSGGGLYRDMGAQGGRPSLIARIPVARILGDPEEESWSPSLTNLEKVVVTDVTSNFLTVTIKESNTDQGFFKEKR
UniProt P16070: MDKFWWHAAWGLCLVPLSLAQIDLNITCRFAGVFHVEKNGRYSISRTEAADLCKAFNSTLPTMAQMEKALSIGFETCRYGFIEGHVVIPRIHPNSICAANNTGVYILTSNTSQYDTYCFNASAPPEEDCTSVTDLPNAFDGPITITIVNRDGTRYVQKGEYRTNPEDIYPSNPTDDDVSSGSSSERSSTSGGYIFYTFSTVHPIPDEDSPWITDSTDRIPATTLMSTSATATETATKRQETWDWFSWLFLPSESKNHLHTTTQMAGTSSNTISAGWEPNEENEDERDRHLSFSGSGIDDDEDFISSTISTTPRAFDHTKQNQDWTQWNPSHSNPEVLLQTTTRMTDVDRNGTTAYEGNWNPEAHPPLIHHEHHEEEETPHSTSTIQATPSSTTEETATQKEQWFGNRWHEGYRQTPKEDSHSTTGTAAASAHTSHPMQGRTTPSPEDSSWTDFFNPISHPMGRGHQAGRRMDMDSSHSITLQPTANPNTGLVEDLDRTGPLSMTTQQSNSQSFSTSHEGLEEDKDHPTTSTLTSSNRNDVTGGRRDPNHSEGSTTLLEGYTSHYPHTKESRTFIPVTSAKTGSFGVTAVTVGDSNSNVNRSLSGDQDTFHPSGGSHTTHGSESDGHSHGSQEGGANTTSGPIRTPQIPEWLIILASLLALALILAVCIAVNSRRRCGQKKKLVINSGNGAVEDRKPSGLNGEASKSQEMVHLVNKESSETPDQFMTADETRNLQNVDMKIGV
UniProt P34810: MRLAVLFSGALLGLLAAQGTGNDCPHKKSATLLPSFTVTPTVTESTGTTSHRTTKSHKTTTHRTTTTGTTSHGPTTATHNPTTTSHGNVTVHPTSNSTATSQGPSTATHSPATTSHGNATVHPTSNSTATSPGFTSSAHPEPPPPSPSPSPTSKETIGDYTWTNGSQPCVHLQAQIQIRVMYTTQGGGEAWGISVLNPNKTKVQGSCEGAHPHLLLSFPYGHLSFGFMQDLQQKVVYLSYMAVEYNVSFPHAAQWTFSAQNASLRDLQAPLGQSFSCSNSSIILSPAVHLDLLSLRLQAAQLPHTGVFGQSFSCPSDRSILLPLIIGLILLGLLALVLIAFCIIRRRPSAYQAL
UniProt P40259: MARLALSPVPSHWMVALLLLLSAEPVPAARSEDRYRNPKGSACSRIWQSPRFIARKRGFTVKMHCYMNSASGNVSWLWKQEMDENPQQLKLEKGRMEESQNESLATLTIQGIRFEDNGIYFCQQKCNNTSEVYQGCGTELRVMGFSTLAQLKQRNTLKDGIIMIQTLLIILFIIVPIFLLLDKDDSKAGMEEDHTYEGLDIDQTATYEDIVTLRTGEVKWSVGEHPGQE
UniProt Q96MW1: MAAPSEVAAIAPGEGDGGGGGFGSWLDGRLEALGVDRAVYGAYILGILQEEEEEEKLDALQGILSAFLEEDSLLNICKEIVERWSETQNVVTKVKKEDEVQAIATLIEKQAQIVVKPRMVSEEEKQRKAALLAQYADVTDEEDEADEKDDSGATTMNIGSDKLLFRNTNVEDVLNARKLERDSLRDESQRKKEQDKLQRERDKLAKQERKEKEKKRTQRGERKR
UniProt A2RUB6: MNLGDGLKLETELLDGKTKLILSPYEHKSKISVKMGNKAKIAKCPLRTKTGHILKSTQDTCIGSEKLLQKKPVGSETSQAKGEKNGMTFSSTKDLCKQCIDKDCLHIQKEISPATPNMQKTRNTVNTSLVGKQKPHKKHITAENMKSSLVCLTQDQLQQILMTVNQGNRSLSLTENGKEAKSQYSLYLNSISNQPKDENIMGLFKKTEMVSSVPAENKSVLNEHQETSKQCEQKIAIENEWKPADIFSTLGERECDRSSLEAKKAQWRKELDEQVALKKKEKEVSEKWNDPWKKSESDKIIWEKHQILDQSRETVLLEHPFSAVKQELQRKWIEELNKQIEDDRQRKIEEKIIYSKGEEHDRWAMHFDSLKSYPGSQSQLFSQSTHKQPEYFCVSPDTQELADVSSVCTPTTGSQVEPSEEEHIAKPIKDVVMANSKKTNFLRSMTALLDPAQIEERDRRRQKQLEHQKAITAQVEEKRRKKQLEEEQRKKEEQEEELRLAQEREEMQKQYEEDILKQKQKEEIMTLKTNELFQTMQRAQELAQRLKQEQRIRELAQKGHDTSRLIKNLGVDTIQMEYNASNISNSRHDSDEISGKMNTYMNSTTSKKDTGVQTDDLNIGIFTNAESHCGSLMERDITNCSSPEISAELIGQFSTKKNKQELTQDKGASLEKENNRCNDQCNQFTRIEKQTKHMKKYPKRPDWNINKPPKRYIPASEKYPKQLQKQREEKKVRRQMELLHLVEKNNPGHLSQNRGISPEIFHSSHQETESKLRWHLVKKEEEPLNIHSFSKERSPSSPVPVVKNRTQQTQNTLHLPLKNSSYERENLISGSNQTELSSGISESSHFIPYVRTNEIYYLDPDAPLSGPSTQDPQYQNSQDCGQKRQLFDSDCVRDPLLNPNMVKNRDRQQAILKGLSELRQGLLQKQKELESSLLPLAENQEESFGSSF
UniProt P15529: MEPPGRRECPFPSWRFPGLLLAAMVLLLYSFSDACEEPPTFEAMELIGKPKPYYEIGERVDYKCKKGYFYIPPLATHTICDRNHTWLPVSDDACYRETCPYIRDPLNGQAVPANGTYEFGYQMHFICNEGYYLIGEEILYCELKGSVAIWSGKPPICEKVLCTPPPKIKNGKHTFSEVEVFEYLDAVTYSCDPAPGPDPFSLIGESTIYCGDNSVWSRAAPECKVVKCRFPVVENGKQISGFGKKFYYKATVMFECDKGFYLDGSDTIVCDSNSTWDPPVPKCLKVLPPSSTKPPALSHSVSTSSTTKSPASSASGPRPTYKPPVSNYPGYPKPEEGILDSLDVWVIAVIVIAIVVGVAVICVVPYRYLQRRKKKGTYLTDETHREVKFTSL
UniProt Q8WTX7: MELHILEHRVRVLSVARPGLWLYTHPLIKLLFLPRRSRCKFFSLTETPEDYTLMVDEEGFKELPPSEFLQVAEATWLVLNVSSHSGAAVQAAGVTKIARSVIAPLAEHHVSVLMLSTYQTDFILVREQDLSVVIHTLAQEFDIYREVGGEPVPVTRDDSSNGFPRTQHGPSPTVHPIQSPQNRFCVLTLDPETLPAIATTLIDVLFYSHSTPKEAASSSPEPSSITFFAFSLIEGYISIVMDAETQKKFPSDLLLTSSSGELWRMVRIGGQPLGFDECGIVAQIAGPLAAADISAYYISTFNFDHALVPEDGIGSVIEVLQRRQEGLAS
UniProt Q96EE4: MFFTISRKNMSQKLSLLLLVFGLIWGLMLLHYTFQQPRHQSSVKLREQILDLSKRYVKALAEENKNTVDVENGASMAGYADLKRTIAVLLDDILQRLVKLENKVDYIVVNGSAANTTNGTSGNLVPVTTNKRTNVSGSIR
UniProt P51636: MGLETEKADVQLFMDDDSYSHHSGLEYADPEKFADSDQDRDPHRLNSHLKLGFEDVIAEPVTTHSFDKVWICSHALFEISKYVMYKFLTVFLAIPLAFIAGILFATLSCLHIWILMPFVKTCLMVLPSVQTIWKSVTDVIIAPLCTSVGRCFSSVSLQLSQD
UniProt Q9NQ75: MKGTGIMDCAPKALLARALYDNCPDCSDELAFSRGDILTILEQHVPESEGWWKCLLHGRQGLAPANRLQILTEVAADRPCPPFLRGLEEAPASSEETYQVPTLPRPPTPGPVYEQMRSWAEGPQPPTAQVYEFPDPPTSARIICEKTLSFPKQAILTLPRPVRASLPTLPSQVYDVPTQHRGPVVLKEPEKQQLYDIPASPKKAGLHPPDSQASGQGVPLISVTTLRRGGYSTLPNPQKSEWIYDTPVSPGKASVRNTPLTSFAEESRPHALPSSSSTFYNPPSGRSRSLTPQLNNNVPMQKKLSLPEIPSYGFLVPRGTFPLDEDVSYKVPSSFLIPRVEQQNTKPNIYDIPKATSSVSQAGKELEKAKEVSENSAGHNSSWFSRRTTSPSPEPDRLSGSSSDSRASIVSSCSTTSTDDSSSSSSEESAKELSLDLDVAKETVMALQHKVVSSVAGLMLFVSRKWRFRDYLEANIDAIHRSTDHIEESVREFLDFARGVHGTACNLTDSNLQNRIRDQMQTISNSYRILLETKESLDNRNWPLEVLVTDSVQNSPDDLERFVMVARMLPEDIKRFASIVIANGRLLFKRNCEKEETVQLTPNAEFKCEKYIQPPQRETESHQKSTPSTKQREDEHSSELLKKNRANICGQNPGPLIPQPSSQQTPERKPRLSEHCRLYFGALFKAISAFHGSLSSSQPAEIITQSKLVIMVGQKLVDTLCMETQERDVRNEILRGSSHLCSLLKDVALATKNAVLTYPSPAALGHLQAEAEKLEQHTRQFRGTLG

Experiments:
Test in all cases: log2 fold change, soluble protein after heating vs DMSO (PISA); higher = thermal stabilisation; K562 lysate, 10 uM; active = over 0.2 and 3.5 SD of the protein, either way, in both replicates (recomputed)
ibrutinib = compound: C=CC(=O)N1CCC[C@@H](n2nc(-c3ccc(Oc4ccccc4)cc3)c3c(N)ncnc32)C1 [ibrutinib]
Outline: (§1)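 Soluble protein was defined as the supernatant remaining after 21,000xg for 90 min, following pooling of heated aliquots and adjustment to 0.5% NP-40 at 4°C. Before that, crude K562 extract at 1 mg/mL protein in PBS pH 7.4 with 1 mM MgCl2 was treated with 10 μM compound for 30 min and heated for 3 min across 48°C-58°C. Quantification used TMTpro 16plex LC-MS/MS with channel sums equalised, and values are log-two fold changes in thermal stability relative to solvent controls from duplicates.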

[1] = compound: CC(=O)c1cnc2ccc(-c3cc(Cl)c(O)c(Cl)c3)nc2c1N[C@H]1CC[C@H](CN(C)C)CC1
Outline: as §1

[2] = compound: CC1=CC=C(C=C1)SC2=C3C=C(SC3=CN=C2)C(=O)N
Outline: as §1

ralimetinib = compound: CC(C)(C)Cn1c(N)nc2ccc(-c3[nH]c(C(C)(C)C)nc3-c3ccc(F)cc3)nc21 [ralimetinib]
Outline: as §1

[3] = compound: CC(C)(O)CC(=O)NCCn1ccc2ncnc(Nc3ccc(Oc4cccc(C(F)(F)F)c4)c(Cl)c3)c21
Outline: as §1

[4] = compound: CC(C)C1=C2N=C(C=C(N2N=C1)NCC3=CC=CC=C3)NCCCCCCN
Outline: as §1

[5] = compound: CC1=C(C(CC(=O)N1)C2=CC=C(C=C2)C(F)(F)F)C(=O)NC3=C(C=C4C(=C3)C=NN4)F
Outline: as §1

[6] = compound: CC1=C(C=C(C=C1)NC(=O)C2=CC(=CC=C2)N(C)C)NC(=O)C3=CC=C(C=C3)O
Outline: as §1

[7] = compound: CC1=C(C=C(C=C1)NC(=O)C2=CC(=CC=C2)C(C)(C)C#N)NC3=CC4=C(C=C3)N=CN(C4=O)C
Outline: as §1

[8] = compound: CC1=C(C2=C(C=C1)C(=O)C3=CC=CC=C3N2CCCN)C
Outline: as §1

Measured: log2 fold change

CCT6B (UniProt Q92526)
inactive: ibrutinib 0.168 | [1] -0.022 | [2] 0.016

CCRL2 isoform 2 (UniProt O00421)
inactive: ibrutinib 0.045 | ralimetinib 0.01 | [3] -0.075 | [4] 0.026 | [5] -0.099 | [6] -0.105

CCDC167 (UniProt Q9P0B6)
inactive: ibrutinib 0.019 | [4] -0.044 | [5] 0.059 | [7] 0.047

CCNE1 (UniProt P24864)
inactive: ibrutinib 0.09 | [1] 0.069 | ralimetinib 0.07 | [3] -0.028 | [8] 0.024 | [7] 0.064 | [6] -0.038 | [2] -0.103

CCDC59 (UniProt Q9P031)
inactive: ibrutinib 0.02 | [1] -0.052 | [5] 0.028 | [8] -0.059 | [7] 0.039 | [2] -0.066

CCDC85C (UniProt A6NKD9)
inactive: ibrutinib 0.003 | [1] -0.029 | [5] 0.027 | [8] 0.051 | [7] 0.032 | [2] -0.023

CCDC85B (UniProt Q15834)
inactive: ibrutinib 0.215 | [1] -0.248 | ralimetinib -0.001 | [3] 0.05 | [4] 0.056 | [8] 0.004 | [7] -0.016 | [6] -0.163 | [2] 0.014

CBL (UniProt P22681)
inactive: ibrutinib 0.003 | [1] -0.001 | ralimetinib 0.007 | [3] -0.022 | [4] -0.014 | [5] -0.019 | [8] -0.002 | [7] 0.005 | [6] -0.013 | [2] -0.026

CCDC102A (UniProt Q96A19)
inactive: ibrutinib 0.142 | [4] 0.073 | [7] 0.076

CASK (UniProt O14936)
inactive: ibrutinib 0.108 | [1] -0.031 | ralimetinib 0.025 | [3] -0.097 | [4] -0.126 | [8] -0.005 | [7] -0.043 | [6] 0.016 | [2] 0.052

Reprinted at random: 3 entries already listed
CCDC85C (UniProt A6NKD9)
inactive: ibrutinib 0.003 | [1] -0.029 | [5] 0.027 | [8] 0.051 | [7] 0.032 | [2] -0.023

CASK (UniProt O14936)
inactive: ibrutinib 0.108 | [1] -0.031 | ralimetinib 0.025 | [3] -0.097 | [4] -0.126 | [8] -0.005 | [7] -0.043 | [6] 0.016 | [2] 0.052

CCDC85B (UniProt Q15834)
inactive: ibrutinib 0.215 | [1] -0.248 | ralimetinib -0.001 | [3] 0.05 | [4] 0.056 | [8] 0.004 | [7] -0.016 | [6] -0.163 | [2] 0.014

Remaining list, next part

CASC1 (UniProt Q6TDU7)
inactive: ibrutinib 0.24 | ralimetinib 0.078 | [3] -0.093 | [6] 0.097

CD2BP2 (UniProt O95400)
inactive: ibrutinib 0.012 | [1] -0.008 | ralimetinib 0.016 | [3] -0.071 | [4] -0.021 | [5] 0.014 | [8] -0.012 | [7] -0.018 | [6] 0.043 | [2] 0.015

CBX8 (UniProt Q9HC52)
inactive: [7] 0.027

CD44 (UniProt P16070)
inactive: [4] -0.181 | [5] -0.015

CD68 (UniProt P34810)
inactive: [4] 0.049 | [7] 0.025

CCDC175 (UniProt P0C221)
inactive: [1] 0.055 | [2] 0.025

CCDC136 isoform 4 (UniProt Q96JN2)
inactive: [4] -0.09 | [8] -0.06 | [7] -0.076

CBX3 (UniProt B8ZZ43)
inactive: ralimetinib -0.006 | [3] -0.179 | [5] -0.055 | [7] -0.02 | [6] 0.011

CD79B isoform 3 (UniProt P40259)
inactive: [8] -1.68

CD33 (UniProt P20138)
inactive: [1] -0.041 | [5] 0.015 | [8] 0.13 | [7] -0.357 | [2] 0.064

CCDC43 isoform 2 (UniProt Q96MW1)
inactive: [4] -0.08

CD164 (UniProt Q04900)
inactive: [4] -0.011 | [7] 0.123

CCDC66 (UniProt A2RUB6)
inactive: ralimetinib 0.017 | [3] -0.159 | [6] 0.052

CCDC152 (UniProt Q4G0S7)
inactive: [4] 0.159 | [8] -0.093 | [7] 0.024

CCT8 (UniProt H7C4C8)
inactive: ralimetinib 0.061 | [3] 0.056 | [5] -0.003 | [7] -0.125 | [6] -0.094

CASP10 isoform 2 (UniProt Q92851)
inactive: ralimetinib 0.139 | [3] 0.022 | [8] -0.032 | [6] 0.032

CCAR2 (UniProt G3V119)
inactive: [1] 0.017 | [2] -0.047

CCNL1 (UniProt Q9UK58)
inactive: [1] 0.042 | [5] 0.089 | [7] -0.016 | [2] 0.01

CD46 (UniProt P15529)
inactive: [4] -0.166 | [7] 0.055

CCDC71L (UniProt Q8N9Z2)
inactive: [8] 0.064

CD276 (UniProt Q5ZPR3)
inactive: ralimetinib -0.145 | [3] -0.114 | [4] -0.043 | [6] 0.151

CASTOR1 (UniProt Q8WTX7)
inactive: [7] 0.131

CCDC126 (UniProt Q96EE4)
inactive: [4] 0.028 | [7] 0.086

CD69 (UniProt Q07108)
inactive: [7] -0.122

CAV2 (UniProt P51636)
inactive: [1] 0.007 | ralimetinib 0.01 | [3] -0.235 | [4] -0.13 | [8] 0.061 | [7] -0.008 | [6] 0.078 | [2] 0.114

CCND1 (UniProt P24385)
inactive: [7] 0.151

CBX2 (UniProt Q14781)
inactive: [1] -0.253 | [5] 0.174 | [2] -0.192

CASS4 (UniProt Q9NQ75)
inactive: ralimetinib -0.011 | [3] -0.114 | [4] 0.089 | [5] 0.104 | [8] 0.119 | [7] -0.073 | [6] 0.046

CCT6B isoform 3 (UniProt Q92526)
inactive: [1] -0.016 | [8] -0.159 | [2] -0.135

CCDC8 (UniProt Q9H0W5)
inactive: [5] 0.066 | [8] -0.049

CCDC18 (UniProt Q5T9S5)
inactive: ralimetinib -0.02 | [3] -0.133 | [5] -0.087 | [8] 0.003 | [7] 0.077 | [6] -0.021

CBLL1 (UniProt Q75N03)
inactive: [1] -0.022 | ralimetinib 0.042 | [3] 0.013 | [4] -0.068 | [5] -0.045 | [8] 0.029 | [7] 0.033 | [6] -0.008 | [2] -0.026

CBFA2T2 isoform 4 (UniProt O43439)
inactive: [1] 0.181 | ralimetinib 0.177 | [3] 0.055 | [4] 0.051 | [5] 0.002 | [8] 0.105 | [7] 0.002 | [6] -0.093 | [2] -0.214

CCDC88A isoform 2 (UniProt Q3V6T2)
inactive: [5] 0.085

CCDC138 (UniProt Q96M89)
inactive: [5] 0.033
